Reference: PubChem BioAssay AID624297 (National Center for Advancing Translational Sciences (NCATS), 2012)
Screen size: about 340,000 compounds; about 6,200 (1.8%) were called active. This list was built around the results that the source calls inconclusive (neither active nor inactive); the mix of calls is not that of the screen. The call rests on the fitted dose curve; in most records, active means well fitted activation curve with a large enough effect; inconclusive means small, poorly fitted or top-dose-only effect; inactive means no such curve, though single readings can be large or run the other way. Potencies of inconclusive entries are doubtful fits and often do not repeat.

Experiment: A quantitative high throughput screen for small molecules that induce DNA re-replication in SW480 colon adenocarcinoma cells. Further: nearly all actives have a fitted effect of over 55% in size. On re-replication activation: % of control where 0% means no effect.
Details: Hoechst DNA content imaging, 48 h; re-replication activation: at 46.1 µM (top of the series) unless noted
Outline: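 Compounds, transferred as 23 nL by pin tool, were incubated with cells for 48 hr; DNA content per nucleus was then quantified by Hoechst staining and fluorescence plate imaging.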
Potency means the concentration at half of the fitted maximal effect.

| SMILES | re-replication activation | Potency |
| --- | --- | --- |
| COc1ccc(OC)c(NC2=NC3(CCCC3)N=C(N)N2)c1 | inactive: 1.32% |  |
| N=C1C(c2ccccc2)=C(O)CN1CCO | inactive: -8.93% |  |
| Fc1ccc(COc2cccc(-c3n[nH]c(=S)o3)c2)cc1 |  | inconclusive: 2.31 µM [activator, full curve, poor fit] |
| CCc1sc(C(=O)NCc2ccco2)cc1Br |  | inconclusive: 6.51 µM [activator, single point] |
| CCC(C)Nc1nc(Cl)nc(N(C#N)CN2C(=O)c3ccccc3S2(=O)=O)n1 (stereo not drawn) |  | inconclusive: 29.1 µM [activator, single point] |
| CCC(C)(C)NC(=O)CN(Cc1ccccc1)C(=O)CCC(=O)Nc1nccs1 | inactive: -0.362% |  |
| Cc1cc(/C=C\c2ccccc2)nc2ccccc12 |  | inconclusive: 0.158 µM [activator, partial curve, poor fit] |
| Cc1ccc(-c2nn(-c3ccccc3)cc2C=O)o1 |  | inconclusive: 23.1 µM [activator, single point] |
| Cc1ncsc1C(=O)Nc1nc2c(s1)CCCC2 |  | inconclusive: 6.51 µM [activator, single point] |
| COc1cc(NC(=O)Cn2nc(C(F)(F)F)c(Br)c2C)cc([N+](=O)[O-])c1 | inactive: -5.39% |  |
| Nc1c(S(=O)(=O)c2ccccc2)nnn1-c1ccccc1 |  | inconclusive: 14.6 µM [activator, single point] |
| Cc1cccc(NC(=O)Cc2coc3ccc4ccccc4c23)n1 |  | inconclusive: 29.1 µM [activator, single point] |
| Cc1cc(C(=O)N/N=C/c2ccc(-c3cccc(Br)c3)o2)n[nH]1 |  | active: 20.6 µM |
| CCOC(=O)[C@H]1[C@H]2COc3ccc(Cl)cc3[C@@H]2N2C(=O)c3cc(F)ccc3NC(=O)[C@@]12C |  | inconclusive: 13 µM [activator, partial curve, poor fit] |
| CC(C)n1nnnc1SCC(=O)N1CCN(Cc2ccc3c(c2)OCCO3)CC1 | inactive: 2% |  |
| O=C(c1ccccc1)c1ccc(N2CCOCC2)c(NC(=O)c2ccco2)c1 | inactive: -0.355% |  |
| O=C(Cn1sc2ccccc2c1=O)NC12CC3CC(CC(C3)C1)C2 |  | inconclusive: 23.1 µM [activator, single point] |
| N#Cc1ccccc1OCCN1C(=O)c2ccccc2C1=O | inactive: -10.2% |  |
| O=C(NCc1cc2ccccc2[nH]1)C1CCC(=O)N(CCCN2CCCC2=O)C1 (stereo not drawn) |  | inconclusive: 29.1 µM [activator, single point] |
| CC1=C(C(=O)OC(C)C)C(c2ccccc2)NC(=S)N1C (stereo not drawn) |  | inconclusive: 2.31 µM [activator, partial curve, poor fit] |
| CC(C)C(NS(=O)(=O)c1cccc2nsnc12)C(=O)N1CCc2ccccc2C1 (stereo not drawn) | inactive: 8.28% |  |
| CC1CCCC(NC(=O)c2cccc(S(=O)(=O)N3CCCCC3)c2)C1C (stereo not drawn) | inactive: 25.5% |  |
| CC(=O)c1c(C)[nH]c(C(=O)N2CCCC(C)C2)c1C (stereo not drawn) |  | active: 2.31 µM |
| Cc1cc(C)nc(SCC(=O)Nc2ccc(S(=O)(=O)NC(C)(C)C)cc2)n1 | inactive: 1.01% |  |

| SMILES | re-replication activation | Potency |
| --- | --- | --- |
| CN1CCN(c2ccc(NC(=O)c3ccc([N+](=O)[O-])o3)cc2Cl)CC1 |  | active: 1.46 µM |
| Clc1ccc(-c2nc3ccccn3c2CN2CCCCC2)cc1 |  | inconclusive: 5.8 µM [activator, partial curve, poor fit] |
| O=C(Nc1cc(Cl)ccc1F)c1ccc(-n2cncn2)c([N+](=O)[O-])c1 | inactive: 65.3% |  |
| CCC(=O)N1CCN(c2cc(N3CCCC3)c(F)cc2[N+](=O)[O-])CC1 |  | inconclusive: 14.6 µM [activator, partial curve] |
| O=C1c2ccccc2NC(c2cccs2)N1O (stereo not drawn) | inactive: -78.2% |  |
| N#C/C(=C(/O)CSc1ncn[nH]1)c1nc2ccccc2[nH]1 | inactive: -24.9% |  |
| N/C(=N\OC(=O)COc1ccc2ccccc2c1)c1ccccn1 | inactive: -2.95% |  |
| O=C(CCn1c(=O)oc2ccccc21)NC1=NCCS1 |  | inconclusive: 18.4 µM [activator, partial curve, poor fit] |
| C=CCNc1nc(C)c(CNc2c(C)cc(C)cc2C)nc1C#N |  | inconclusive: 18.4 µM [activator, partial curve, poor fit] |
| CCOc1cc(/C=N/N=C(/N)c2nonc2N)cc(Br)c1OCc1ccc(Cl)cc1 |  | inconclusive: 20.6 µM [activator, single point] |
| COc1ccccc1OCc1ccc(C(=O)Nc2ccncc2)o1 | inactive: -13.7% |  |
| COc1ccc(NC(=S)NNC(=O)c2ccccc2OC(F)F)cc1 |  | active: 0.58 µM |
| COc1cc(/C=C2\C(=O)N(CCC#N)N=C2C)ccc1OCC(=O)Nc1ccccc1 |  | inconclusive: 25.1 µM [activator, single point] |
| O=C(NCCN1CCN(Cc2ccccc2)CC1)C1CC(=O)N(C2CCCC2)C1 (stereo not drawn) |  | inconclusive: 29.1 µM [activator, partial curve, poor fit] |
| O=C(CCCCn1ccc(=O)[nH]c1=O)Nc1ccc(O)c(C(=O)O)c1 | inactive: 1.18% |  |
| Cc1cc(NC(=O)/C=C/c2ccc(Br)cc2)no1 |  | active: 10.3 µM |
| O=C1c2ccccc2C(=O)N1CCc1csc(-c2ccccc2)n1 | inactive: 12.3% |  |
| CC1(C)C2C/C(=N\O)C(C)(/[N+]([O-])=C/c3cccc([N+](=O)[O-])c3)CC21 (stereo not drawn) |  | inconclusive: 18.4 µM [activator, single point] |
| Cc1ccc(C#N)c(SCc2nnc(-c3ccc(Cl)cc3)o2)n1 |  | active: 2.31 µM |
| Cc1ccc(-n2nnnc2SCC(=O)NCC2(N3CCCCC3)CCCCC2)c(C)c1 |  | inconclusive: 23.1 µM [activator, single point] |
| CC1CCCC(C)N1C(=O)c1ccccc1Nc1ccc(SC(F)F)cc1 (stereo not drawn) |  | inconclusive: 18.4 µM [activator, single point] |
| CNC(=O)/C(C#N)=C1/SC(Cc2ccc(F)cc2)C(=O)N1c1ccccc1 (stereo not drawn) |  | inconclusive: 29.1 µM [activator, partial curve, poor fit] |
| CCCn1nnc(NC(=S)NC(=O)CC)n1 |  | inconclusive: 29.1 µM [activator, single point] |
| COc1cccc(N2C(=O)C3CCCN3C2c2cccs2)c1 (stereo not drawn) |  | inconclusive: 5.17 µM [activator, full curve] |

Ordered by formula weight (smallest number first): three of the compounds above.

| SMILES | re-replication activation | Potency |
| --- | --- | --- |
| Cc1ccc(-c2nn(-c3ccccc3)cc2C=O)o1 |  | inconclusive: 23.1 µM [activator, single point] |
| Cc1cccc(NC(=O)Cc2coc3ccc4ccccc4c23)n1 |  | inconclusive: 29.1 µM [activator, single point] |
| CNC(=O)/C(C#N)=C1/SC(Cc2ccc(F)cc2)C(=O)N1c1ccccc1 (stereo not drawn) |  | inconclusive: 29.1 µM [activator, partial curve, poor fit] |
